Taken from: PubChem BioAssay AID1259405 (NCATS, 2018)
Here is a random part of about 50,000 reagents tested. About 4,000 of all reagents (8%) were called active. 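Mouse siRNA library applied to hamster cells; one well for each siRNA.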 The numbers tell different reagents against one gene apart.

Aim: 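Silenced genes that increase secreted GFP made by CHO cells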 (primary screen)
Cells: Chinese hamster CHO-K1 ovary cells with stable secreted eGFP expression
Reagent: single siRNA against mouse genes, 0.8 pmol siRNA per well (2 µl of 400 nM stock)
Timing: 3 days
Measured: 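Percent of the per-plate non-targeting control median for intracellular GFP per well by laser scanning cytometry and for cell viability by ATP luminescence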
Scale: GFP, % of control: higher = more GFP per well, higher productivity; viability (ATP), % of control: higher = more viable cells (more ATP)
Hit rule: 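Called active when intracellular GFP, relative to negative control, is at or above 120%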

Target gene,siRNA no.,"GFP, % of control","viability (ATP), % of control",Outcome
Bcl2l14,1,47,56.2,inactive
Bcl2l14,2,62.2,68.3,inactive
Bcl2l14,3,46.9,57.4,inactive
Tgm2,1,89.3,64,inactive
Tgm2,2,72.9,74.3,inactive
Tgm2,3,82.1,87,inactive
Wfdc12,1,63.4,73.9,inactive
Wfdc12,2,62.3,82.2,inactive
Wfdc12,3,78,103,inactive
Nr5a2,1,57.6,87.2,inactive
Nr5a2,2,125,92.6,active
Nr5a2,3,93.8,41.5,inactive
Actr6,1,94.6,61.1,inactive
Actr6,2,61.6,57.9,inactive
Nlrp4g,1,86.4,77.3,inactive
Nlrp4g,2,133,111,active
Nlrp4g,3,110,92.3,inactive
6030458C11Rik,1,40.8,45.6,inactive
6030458C11Rik,2,82.9,87.5,inactive
6030458C11Rik,3,75.6,123,inactive
Medag,1,67.6,73,inactive
Medag,2,47.8,75.3,inactive
Medag,3,97.4,103,inactive
Zbtb7a,1,116,115,inactive
Zbtb7a,2,93.1,94.3,inactive
Baz1b,1,126,72.5,active
Baz1b,2,50.6,49.5,inactive
Baz1b,3,79.8,68.1,inactive
Rad51ap1,1,64.6,76,inactive
Rad51ap1,2,88.1,69.6,inactive
Rad51ap1,3,51.8,52,inactive
Or2g7,1,101,52.5,inactive
Or2g7,2,110,49.7,inactive
Or2g7,3,68.5,95,inactive
Clec4b2,1,38.9,70.6,inactive
Clec4b2,2,65.2,61.7,inactive
Clec4b2,3,93.5,59.3,inactive
Or5p68,1,104,96.8,inactive
Or5p68,2,82.8,57.4,inactive
Or5p68,3,65.8,34.8,inactive
Wipi2,1,63.6,46.4,inactive
Wipi2,2,117,56.9,inactive
Wipi2,3,80.3,58.7,inactive
Angpt1,1,49.6,59.7,inactive
Angpt1,2,50.3,52,inactive
Rcan3,1,79.7,54.6,inactive
Rcan3,2,106,107,inactive
Cmc1,1,87.9,84.7,inactive
Cmc1,2,67.6,63.1,inactive
Cmc1,3,67.4,76.4,inactive
Snx18,1,78.9,104,inactive
Snx18,2,94.5,74.3,inactive
Nt5m,1,51.1,61.4,inactive
Nt5m,2,93,86.2,inactive
Nt5m,3,82.5,40.9,inactive
Eya1,1,145,86.7,active
Eya1,2,92.7,49.8,inactive
Eya1,3,61.8,72.9,inactive
Slc8b1,1,35.4,59.4,inactive
Slc8b1,2,44.6,83.7,inactive
Slc8b1,3,83.5,97.9,inactive
Usp39,1,153,98,active
Usp39,2,108,94.4,inactive
Or2ag19,1,63.7,37.9,inactive
Or2ag19,2,50.9,54.5,inactive
Or2ag19,3,67.9,54.8,inactive
Hid1,1,74.2,71.4,inactive
Hid1,2,38.2,28.9,inactive
Hid1,3,97.5,108,inactive
Hao2,1,87.8,107,inactive
Hao2,2,34.8,93.6,inactive
Hao2,3,61.4,72.7,inactive
Oprl1,1,85.1,85.6,inactive
Oprl1,2,78.2,75.4,inactive
Oprl1,3,79.6,69.9,inactive
Nosip,1,79.1,33.1,inactive
Nosip,2,9.91,3.15,inactive
Nosip,3,122,64.7,active
Ndufs8,1,74.4,67.4,inactive
Ndufs8,2,86.5,69,inactive
Ndufs8,3,89.4,81.6,inactive
Pnrc2,1,82.5,85.7,inactive
Pnrc2,2,96.1,63.6,inactive
Pnrc2,3,80,70.5,inactive
